From patent publication EP1891105B1, “OXYNTOMODULIN ANALOGUES AND THEIR EFFECTS ON FEEDING BEHAVIOUR” (Imperial Innovations Limited, priority 2005, dated 2012)
Entries after “also recorded” stand apart in the source; their conditions may differ. At least one peptide structure holds a part that was inferred or is arguable (an end, a ring closure or a residue). Non-standard residues stand in square brackets, D forms with d. Residues, ends and D or L forms follow the SMILES beside them.

Assay: Food intake of fasted mice after injection of peptide
Type: in vivo, C57BL/6 mice
Conditions: for onset of appetite suppressant activity: general statement in the description, compared with SEQ ID NO: 16 and SEQ ID NO: 7
Method: Animals: All animal procedures were approved by the British Home Office Animals (Scientific Procedures) Act 1986 (Project License number 70/5516). Male C57BL/6 mice and male Wistar rats were maintained in individual cages under controlled temperature (21-23 °C) with ad libitum access to standard chow (RM1 diet, SDS Ltd, Witham, Essex, UK) and to water. The light cycle was 14 hours light and 10 hours dark with 'dawn' at 07:00, lights full on at 07:30, 'dusk' at 21:00 with lights off at 21:30. These times were fixed in the animal facility.
All animals were handled almost daily for on average nine days prior to the first study. During the acclimatization period, each animal received two saline injections at least two days apart in order to further acclimatize to the procedure on the study days.
Intra-peritoneal (IP) injections: IP injections were administered to mice via a 0.5 ml syringe with a 29-gauge needle (maximum injection volume 0.1 ml). Maximum volume administered IP was 0.1 ml.
Study protocol: C57BL/6 mice (20-35 g) were injected with the peptide under investigation following a 20-hour fast Wistar rats were injected following a 24-hour fast. A pre-weighed quantity of chow was presented immediately after injection. The remaining food was measured at regular time intervals (e.g. 1, 2, 3,4, 6, 8, 24 and 48 hours following injection) and food intake calculated.

[1] = Example 11, mice, 100 nmol/kg, 0-24 h, vs oxm(xx15-24)

For `CC[C@H](C)[C@H](NC(=O)[C@H](CC(N)=O)NC(=O)[C@H](CC(N)=O)NC(=O)[C@H](CCCNC(=N)N)NC(=O)[C@H](CC(N)=O)NC(=O)[C@H](CCCNC(=N)N)NC(=O)[C@H](CCCCN)NC(=O)[C@@H](NC(=O)[C@H](CC(N)=O)NC(=O)[C@H](CCSC)NC(=O)[C@H](CC(C)C)NC(=O)[C@H](Cc1c[nH]c2ccccc12)NC(=O)[C@H](CCC(=O)O)NC(=O)[C@@H](NC(=O)[C@H](Cc1ccccc1)NC(=O)[C@H](CC(C)C)NC(=O)[C@H](CCCNC(=N)N)NC(=O)[C@@H](NC(=O)[C@@H](NC(=O)[C@H](CCC(=O)O)NC(=O)[C@H](CCC(=O)O)NC(=O)[C@H](CCC(=O)O)NC(=O)[C@H](CC(C)C)NC(=O)[C@H](Cc1ccc(O)cc1)NC(=O)[C@H](CCCCN)NC(=O)[C@H](CO)NC(=O)[C@H](Cc1ccc(O)cc1)NC(=O)[C@H](CC(=O)O)NC(=O)[C@H](CO)NC(=O)[C@@H](NC(=O)[C@H](Cc1ccccc1)NC(=O)[C@@H](NC(=O)CNC(=O)[C@H](CCC(N)=O)NC(=O)[C@H](CO)NC(=O)[C@@H](N)Cc1c[nH]cn1)[C@@H](C)O)[C@@H](C)O)C(C)C)C(C)C)[C@@H](C)CC)[C@@H](C)O)C(=O)N[C@@H](C)C(=O)O` [18Val-oxm(xx15-24)] (H-HSQGTFTSDYSKYLEEEVVRLFIEWLMNTKRNRNNIA-OH), the food intake [1] was “delayed onset of activity as compared with oxm(xx15-24) whilst the activity is more prolonged”.

For `CC[C@H](C)[C@H](NC(=O)[C@H](CC(N)=O)NC(=O)[C@H](CC(N)=O)NC(=O)[C@H](CCCNC(=N)N)NC(=O)[C@H](CC(N)=O)NC(=O)[C@H](CCCNC(=N)N)NC(=O)[C@H](CCCCN)NC(=O)[C@@H](NC(=O)[C@H](CC(N)=O)NC(=O)[C@H](CCSC)NC(=O)[C@H](CC(C)C)NC(=O)[C@H](Cc1c[nH]c2ccccc12)NC(=O)[C@H](CCC(N)=O)NC(=O)[C@@H](NC(=O)[C@H](Cc1ccccc1)NC(=O)[C@H](CC(=O)O)NC(=O)[C@H](CCC(N)=O)NC(=O)[C@H](C)NC(=O)[C@H](CCCNC(=N)N)NC(=O)[C@H](CCCNC(=N)N)NC(=O)[C@H](CO)NC(=O)[C@H](CC(=O)O)NC(=O)[C@H](CC(C)C)NC(=O)[C@H](Cc1ccc(O)cc1)NC(=O)[C@H](CCCCN)NC(=O)[C@H](CO)NC(=O)[C@H](Cc1ccc(O)cc1)NC(=O)[C@H](CC(=O)O)NC(=O)[C@H](CO)NC(=O)[C@@H](NC(=O)[C@H](Cc1ccccc1)NC(=O)[C@@H](NC(=O)CNC(=O)[C@H](CCC(N)=O)NC(=O)[C@@H](N)CO)[C@@H](C)O)[C@@H](C)O)C(C)C)[C@@H](C)O)C(=O)N[C@@H](C)C(=O)O` [Des-His-oxm] (H-SQGTFTSDYSKYLDSRRAQDFVQWLMNTKRNRNNIA-OH), the food intake (Example 12, mice, 2700nmol/kg, 0-4 h) was “reduced food intake”.

For `CC[C@H](C)[C@H](NC(=O)[C@H](CC(N)=O)NC(=O)[C@H](CC(N)=O)NC(=O)[C@H](CO)NC(=O)[C@H](CO)NC(=O)[C@@H]1CCCN1C(=O)CNC(=O)CNC(=O)[C@H](CC(N)=O)NC(=O)[C@H](CCCCN)NC(=O)[C@H](CC(C)C)NC(=O)[C@H](Cc1c[nH]c2ccccc12)NC(=O)[C@H](CCC(=O)O)NC(=O)[C@@H](NC(=O)[C@H](Cc1ccccc1)NC(=O)[C@H](CC(C)C)NC(=O)[C@H](CCCNC(=N)N)NC(=O)[C@@H](NC(=O)[C@H](C)NC(=O)[C@H](CCC(=O)O)NC(=O)[C@H](CCC(=O)O)NC(=O)[C@H](CCC(=O)O)NC(=O)[C@H](CC(C)C)NC(=O)[C@H](Cc1ccc(O)cc1)NC(=O)[C@H](CCCCN)NC(=O)[C@H](CO)NC(=O)[C@H](Cc1ccc(O)cc1)NC(=O)[C@H](CC(=O)O)NC(=O)[C@H](CO)NC(=O)[C@@H](NC(=O)[C@H](Cc1ccccc1)NC(=O)[C@@H](NC(=O)CNC(=O)[C@H](CCC(N)=O)NC(=O)[C@H](C)NC(=O)[C@H](N)Cc1c[nH]cn1)[C@@H](C)O)[C@@H](C)O)C(C)C)[C@@H](C)CC)C(=O)N[C@@H](C)C(=O)O` [D-His1-Ala2-oxm(xx15-24)(xx27-33)] (H-[dH]AQGTFTSDYSKYLEEEAVRLFIEWLKNGGPSSNNIA-OH), the food intake (Example 8, mice, 100 nmol/kg, 0-24 h, vs Exendin 4 and saline, listed as D-Hisl-Ala2-oxm(xx15-24)(xx27-33)) was “especially long-acting; also recorded: may be even longer-acting than Exendin 4” and the “Multiples of food inhibition Factor” value (Example 9, mice, food intake during the first hour after injection, activity relative to oxm (1400 nmol/kg)) was 1-4000.

For `CC[C@H](C)[C@H](NC(=O)[C@H](C)NC(=O)[C@H](CCC(=O)O)NC(=O)[C@H](CCC(=O)O)NC(=O)[C@H](CCC(=O)O)NC(=O)[C@H](CC(C)C)NC(=O)[C@H](Cc1ccc(O)cc1)NC(=O)[C@H](CCCCN)NC(=O)[C@H](CO)NC(=O)[C@H](Cc1ccc(O)cc1)NC(=O)[C@H](CC(=O)O)NC(=O)[C@H](CO)NC(=O)[C@@H](NC(=O)[C@H](Cc1ccccc1)NC(=O)[C@@H](NC(=O)CNC(=O)[C@H](CCC(N)=O)NC(=O)[C@H](CO)NC(=O)[C@@H](N)Cc1c[nH]cn1)[C@@H](C)O)[C@@H](C)O)C(=O)N[C@@H](CCCNC(=N)N)C(=O)N[C@@H](CC(C)C)C(=O)N[C@@H](Cc1ccccc1)C(=O)N[C@H](C(=O)N[C@@H](CCC(=O)O)C(=O)N[C@@H](Cc1c[nH]c2ccccc12)C(=O)N[C@@H](CC(C)C)C(=O)N[C@@H](CCSC)C(=O)N[C@@H](CC(N)=O)C(=O)N[C@H](C(=O)N[C@@H](CCCCN)C(=O)N[C@@H](CCCNC(=N)N)C(=O)N[C@@H](CC(N)=O)C(=O)N[C@@H](CCCNC(=N)N)C(=O)N[C@@H](CC(N)=O)C(=O)N[C@@H](CC(N)=O)C(=O)N[C@H](C(=O)N[C@@H](C)C(=O)O)[C@@H](C)CC)[C@@H](C)O)[C@@H](C)CC` [SEQ ID NO: 34] (H-HSQGTFTSDYSKYLEEEAIRLFIEWLMNTKRNRNNIA-OH), the “onset of appetite suppressant activity” value was “delayed onset”.

For `CC[C@H](C)[C@H](NC(=O)[C@H](C)NC(=O)[C@H](CCC(=O)O)NC(=O)[C@H](CCC(=O)O)NC(=O)[C@H](CCC(=O)O)NC(=O)[C@H](CC(C)C)NC(=O)[C@H](Cc1ccc(O)cc1)NC(=O)[C@H](CCCCN)NC(=O)[C@H](CO)NC(=O)[C@H](Cc1ccc(O)cc1)NC(=O)[C@H](CC(=O)O)NC(=O)[C@H](CO)NC(=O)[C@@H](NC(=O)[C@H](Cc1ccccc1)NC(=O)[C@@H](NC(=O)CNC(=O)[C@H](CCC(N)=O)NC(=O)[C@H](CO)NC(=O)[C@@H](N)Cc1c[nH]cn1)[C@@H](C)O)[C@@H](C)O)C(=O)N[C@@H](CCCNC(=N)N)C(=O)N[C@@H](CC(C)C)C(=O)N[C@@H](Cc1ccccc1)C(=O)N[C@H](C(=O)N[C@@H](CCC(=O)O)C(=O)N[C@@H](Cc1c[nH]c2ccccc12)C(=O)N[C@@H](CC(C)C)C(=O)N[C@@H](CCSC)C(=O)N[C@@H](CC(N)=O)C(=O)N[C@H](C(=O)N[C@@H](CCCCN)C(=O)N[C@@H](CCCNC(=N)N)C(=O)N[C@@H](CC(N)=O)C(=O)N[C@@H](CCCNC(=N)N)C(=O)N[C@@H](CC(N)=O)C(=O)N[C@@H](CC(N)=O)C(=O)N[C@H](C(=O)N[C@@H](C)C(=O)O)[C@@H](C)CC)[C@@H](C)O)[C@@H](C)CC` [Ile19-oxm(xx15-24)] (H-HSQGTFTSDYSKYLEEEAIRLFIEWLMNTKRNRNNIA-OH), the food intake [1] was “equipotent with or slightly more potent than oxm(xx15-24); also recorded: slightly delayed action as compared with oxm (xx15-24)”.

For `CC[C@H](C)[C@H](NC(=O)[C@H](CC(N)=O)NC(=O)[C@H](CC(N)=O)NC(=O)[C@H](CO)NC(=O)[C@H](CO)NC(=O)[C@@H]1CCCN1C(=O)CNC(=O)CNC(=O)[C@H](CC(N)=O)NC(=O)[C@H](CCCNC(=N)N)NC(=O)[C@H](CC(C)C)NC(=O)[C@H](Cc1c[nH]c2ccccc12)NC(=O)[C@H](CCC(N)=O)NC(=O)[C@@H](NC(=O)[C@H](Cc1ccccc1)NC(=O)[C@H](CC(=O)O)NC(=O)[C@H](CCC(N)=O)NC(=O)[C@H](C)NC(=O)[C@H](CCCNC(=N)N)NC(=O)[C@H](CCCNC(=N)N)NC(=O)[C@H](CO)NC(=O)[C@H](CC(=O)O)NC(=O)[C@H](CC(C)C)NC(=O)[C@H](Cc1ccc(O)cc1)NC(=O)[C@H](CCCCN)NC(=O)[C@H](CO)NC(=O)[C@H](Cc1ccc(O)cc1)NC(=O)[C@H](CC(=O)O)NC(=O)[C@H](CO)NC(=O)[C@@H](NC(=O)[C@H](Cc1ccccc1)NC(=O)[C@@H](NC(=O)CNC(=O)[C@H](CCC(N)=O)NC(=O)[C@H](CO)NC(=O)[C@@H](N)Cc1c[nH]cn1)[C@@H](C)O)[C@@H](C)O)C(C)C)C(=O)N[C@@H](C)C(=O)O` [Arg27-oxm(ex27-33)], the food intake (Example 17, mice, 300 nmol/kg, 0-4 h) was “reduction in food intake from 0 to 1 hours”.

With `CC[C@H](C)[C@H](NC(=O)[C@H](CC(N)=O)NC(=O)[C@H](CC(N)=O)NC(=O)[C@H](CCCNC(=N)N)NC(=O)[C@H](CC(N)=O)NC(=O)[C@H](CCCNC(=N)N)NC(=O)[C@H](CCCCN)NC(=O)[C@@H](NC(=O)[C@H](CC(N)=O)NC(=O)[C@H](CCSC)NC(=O)[C@H](CC(C)C)NC(=O)[C@H](Cc1c[nH]c2ccccc12)NC(=O)[C@H](CCC(=O)O)NC(=O)[C@@H](NC(=O)[C@H](Cc1ccccc1)NC(=O)[C@H](CC(C)C)NC(=O)[C@H](CCCNC(=N)N)NC(=O)[C@@H](NC(=O)[C@@H](NC(=O)[C@H](CCC(=O)O)NC(=O)[C@H](CCC(=O)O)NC(=O)[C@H](CCC(=O)O)NC(=O)[C@H](CC(C)C)NC(=O)[C@H](Cc1ccc(O)cc1)NC(=O)[C@H](CCCCN)NC(=O)[C@H](CO)NC(=O)[C@H](Cc1ccc(O)cc1)NC(=O)[C@H](CC(=O)O)NC(=O)[C@H](CO)NC(=O)[C@@H](NC(=O)[C@H](Cc1ccccc1)NC(=O)[C@@H](NC(=O)CNC(=O)[C@H](CCC(N)=O)NC(=O)[C@H](CO)NC(=O)[C@@H](N)Cc1c[nH]cn1)[C@@H](C)O)[C@@H](C)O)C(C)C)C(C)C)[C@@H](C)CC)[C@@H](C)O)C(=O)N[C@@H](C)C(=O)O` [SEQ ID NO: 31] (H-HSQGTFTSDYSKYLEEEVVRLFIEWLMNTKRNRNNIA-OH) the “onset of appetite suppressant activity” value was “delayed onset”.
